Results: paper doi:10.1101/529222
No constants are given. Whether binding was seen depends on the method and setting. In cells and extracts the contact can be indirect. Some entries that bind do so weakly or less than the wild type. Sequences can lack the tags named with a protein.

Target: T1, Myc-TRIM67 (mouse) (UniProt Q505D9)
T1 sequence: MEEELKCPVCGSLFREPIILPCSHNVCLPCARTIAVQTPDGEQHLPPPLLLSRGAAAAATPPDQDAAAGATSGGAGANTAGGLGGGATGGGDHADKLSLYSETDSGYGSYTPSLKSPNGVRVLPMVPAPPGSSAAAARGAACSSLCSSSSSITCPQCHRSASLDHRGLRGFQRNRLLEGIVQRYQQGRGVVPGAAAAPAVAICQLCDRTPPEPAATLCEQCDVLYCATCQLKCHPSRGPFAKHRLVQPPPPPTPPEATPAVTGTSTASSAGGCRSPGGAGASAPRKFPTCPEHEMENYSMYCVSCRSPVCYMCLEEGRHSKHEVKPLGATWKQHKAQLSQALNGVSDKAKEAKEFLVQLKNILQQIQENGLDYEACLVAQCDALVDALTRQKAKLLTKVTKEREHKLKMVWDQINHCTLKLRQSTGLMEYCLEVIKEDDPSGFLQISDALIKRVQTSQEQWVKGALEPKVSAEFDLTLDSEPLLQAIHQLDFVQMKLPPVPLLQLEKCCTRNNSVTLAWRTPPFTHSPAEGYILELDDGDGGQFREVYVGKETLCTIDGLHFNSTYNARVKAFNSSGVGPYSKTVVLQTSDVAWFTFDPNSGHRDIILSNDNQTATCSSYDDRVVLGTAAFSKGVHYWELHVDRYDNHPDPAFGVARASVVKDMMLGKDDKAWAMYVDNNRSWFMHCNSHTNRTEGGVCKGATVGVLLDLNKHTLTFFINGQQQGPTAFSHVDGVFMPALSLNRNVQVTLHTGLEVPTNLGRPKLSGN
Assay: co-IP

B1: GFP-EVL (protein, UniProt P70429 1-414)
chain: MSEQSICQARASVMVYDDTSKKWVPIKPGQQGFSRINIYHNTASSTFRVVGVKLQDQQVVINYSIVKGLKYNQATPTFHQWRDARQVYGLNFASKEEATTFSNAMLFALNIMNSQEGGPSTQRQVQNGPSPEEMDIQRRQVMEQQHRQESLERRISATGPILPPGHPSSAASTTLSCSGPPPPPPPPVPPPPTGSTPPPPPPLPAGGAQGTNHDESSASGLAAALAGAKLRRVQRPEDASGGSSPSGTSKSDANRASSGGGGGGLMEEMNKLLAKRRKAASQTDKPADRKEDESQTEDPSTSPSPGTRATSQPPNSSEAGRKPWERSNSVEKPVSSLLSRTPSVAKSPEAKSPLQSQPHSRVKPAGSVNDVGLDALDLDRMKQEILEEVVRELHKVKEEIIDAIRQELSGISTT
With B1 the binding was “binds”.
